Assay results from PMC9139780.
Results are given in words; binding and its absence hold for the method and conditions named. Binding seen in cells or lysates may run through a third protein. Some results given as binding are weak or reduced against the parent protein; the word gives no strength.

Sequences of proteins named here, by UniProt entry; tags and fusion partners are left off.
UniProt Q04206: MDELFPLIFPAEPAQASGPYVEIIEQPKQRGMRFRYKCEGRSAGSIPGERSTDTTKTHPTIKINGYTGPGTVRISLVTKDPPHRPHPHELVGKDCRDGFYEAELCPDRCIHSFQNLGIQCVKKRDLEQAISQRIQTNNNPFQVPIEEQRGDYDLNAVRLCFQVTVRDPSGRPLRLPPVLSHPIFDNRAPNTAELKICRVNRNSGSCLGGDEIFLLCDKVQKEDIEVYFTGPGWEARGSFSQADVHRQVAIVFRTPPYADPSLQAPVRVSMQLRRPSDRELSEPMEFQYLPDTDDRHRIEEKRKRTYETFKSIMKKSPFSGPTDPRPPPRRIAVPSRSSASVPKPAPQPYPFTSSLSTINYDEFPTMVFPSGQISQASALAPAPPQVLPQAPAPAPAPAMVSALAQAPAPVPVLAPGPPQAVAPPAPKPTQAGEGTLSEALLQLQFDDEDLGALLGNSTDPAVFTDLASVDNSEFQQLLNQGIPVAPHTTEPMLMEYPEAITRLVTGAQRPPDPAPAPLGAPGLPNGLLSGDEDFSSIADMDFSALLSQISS

Target: NF-κB p65 (human (endogenous in AC16)) (UniProt Q04206)
Assay: co-IP; AC16 cells stimulated with TNF-α (20 ng/mL) for 24 h with or without calcitriol (100 nM); lysates immunoprecipitated with anti-p65 antibodies, blotted with anti-VDR and anti-p65 antibodies

binding: binds
B1: Vitamin D receptor (protein, UniProt P11473 1-427)
chain: MEAMAASTSLPDPGDFDRNVPRICGVCGDRATGFHFNAMTCEGCKGFFRRSMKRKALFTCPFNGDCRITKDNRRHCQACRLKRCVDIGMMKEFILTDEEVQRKREMILKRKEEEALKDSLRPKLSEEQQRIIAILLDAHHKTYDPTYSDFCQFRPPVRVNDGGGSHPSRPNSRHTPSFSGDSSSSCSDHCITSSDMMDSSSFSNLDLSEEDSDDPSVTLELSQLSMLPHLADLVSYSIQKVIGFAKMIPGFRDLTSEDQIVLLKSSAIEVIMLRSNESFTMDDMSWTCGNQDYKYRVSDVTKAGHSLELIEPLIKFQVGLKKLNLHEEEHVLLMAICIVSPDRPGVQDAALIEAIQDRLSNTLQTYIRCRHPPPGSHLLYAKMIQKLADLRSLNEEHSKQYRCLSFQPECSMKLTPLVLEVFGNEIS
